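HNT-34 acute myeloid leukemia cells exposed to compounds for 48 h, with cell viability measured by CellTiter-Glo luminescence.
Each compound was run as a dilution series that mostly topped out at 46 µM.
The value is the concentration giving half of the fitted maximal loss of viability; smaller values mean stronger inhibitors.
Calls come from the fitted dose curve, and inconclusive marks inhibition that is small, poorly fitted or seen only at the highest dose.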

Values are in nM.
All entries here are filed as inconclusive.
These entries are mostly ones the record files as inconclusive; other results of the assay are not listed here.
Potencies fitted to partial, single-point or poorly fitting curves are rough.
Some entries filed as inconclusive have a full curve.

- CC(C)(C)c1nc(-c2cccc(NS(=O)(=O)c3c(F)cccc3F)c2F)c(-c2ccnc(N)n2)s1 | Potency 1864 nM (inhibitor, full curve)
- CCCCCCCCCCCCCC(=O)N[C@H](CO)[C@H](O)c1ccc([N+](=O)[O-])cc1 | Potency 26333 nM (inhibitor, single point)
- Clc1ccc(COC(Cn2ccnc2)c2ccc(Cl)cc2Cl)cc1 (stereo not drawn) | Potency 23470 nM (inhibitor, single point)
- Cc1ccc(S(=O)(=O)Nc2cc(Cl)ccc2C(=O)Nc2nc(-c3ccccc3)cs2)cc1 | Potency 9344 nM (inhibitor, single point)
- Nc1ncnc2c1c(COc1cccc(Cl)c1)nn2C1CCOCC1 | Potency 29546 nM (inhibitor, single point)
- COc1c(Nc2ncc(Cl)c(N[C@H]3[C@H](C(N)=O)[C@@H]4C=C[C@@H]3C4)n2)ccc2c1CCC(N1CCOCC1)CC2 (stereo partly drawn) | Potency 16615 nM (inhibitor, partial curve)
- Nc1nc(OCc2ccccc2)c2[nH]cnc2n1 | Potency 23470 nM (inhibitor, partial curve)
- Cn1cc(-c2cnn3c(N)c(Br)c([C@@H]4CCCNC4)nc23)cn1 | Potency 14808 nM (inhibitor, partial curve)
- O=C(Nc1cnccc1Cl)N1CCN(Cc2ccc3c(c2)OC(F)(F)O3)CC1 | Potency 18642 nM (inhibitor, partial curve)
- NC(N)=NC(=O)c1nc(Cl)c(N)nc1N | Potency 42830 nM (inhibitor, partial curve)
- CCCCCCCCCCCC1=C(O)C(=O)C=C(O)C1=O | Potency 33152 nM (inhibitor, single point)
- Cc1c(O)cccc1C(=O)NC(CSc1ccccc1)C(O)CN1CC2CCCCC2CC1C(=O)NC(C)(C)C (stereo not drawn) | Potency 23470 nM (inhibitor, partial curve, poor fit)
- CC(C)(C)c1[nH]cnc1/C=c1\[nH]c(=O)/c(=C/c2ccccc2)[nH]c1=O | Potency 41.7 nM (inhibitor, full curve)
- Nc1ncnc2c1ncn2[C@@H]1O[C@H](CO)C[C@H]1O | Potency 37197 nM (inhibitor, single point)
- O=c1[nH]nc2c3c(cccc13)NC(CN1Cc3ccccc3C1)=N2 | Potency 18642 nM (inhibitor, partial curve)
- NCC(=O)Nc1ccc(-n2nc(C(F)(F)F)cc2-c2ccc3c(ccc4ccccc43)c2)cc1 | Potency 37197 nM (inhibitor, single point)
- C[N+](C)([O-])CCNc1ccc(NCC[N+](C)(C)[O-])c2c1C(=O)c1c(O)ccc(O)c1C2=O | Potency 20917 nM (inhibitor, partial curve)
- Nc1cccc(S(=O)(=O)N2CCCN(S(=O)(=O)c3ccc4c(c3)OCCO4)CC2)c1 | Potency 37197 nM (inhibitor, partial curve, poor fit)
- C=CC(=O)N1CCC(C2CCNc3c(C(N)=O)c(-c4ccc(Oc5ccccc5)cc4)nn32)CC1 (stereo not drawn) | Potency 23470 nM (inhibitor, partial curve)
- Nc1nc(OCc2cc(Br)cs2)c2[nH]cnc2n1 | Potency 26333 nM (inhibitor, single point)
- Cc1ccc(-n2nc(C(C)(C)C)cc2NC(=O)Nc2ccc(OCCN3CCOCC3)c3ccccc23)cc1 | Potency 33152 nM (inhibitor, single point)
- O=C1CSC(=O)N1C(CCc1ccncc1)COc1ccc(-c2cccc([N+](=O)[O-])c2)cc1 (stereo not drawn) | Potency 20917 nM (inhibitor, partial curve)
- CC(C)(O)CCc1ccc(OCc2cc(-c3cccc(OC(F)F)c3)c3ncccc3c2)cc1 | Potency 26333 nM (inhibitor, single point)
- CN(C)CCCN1c2ccccc2CCc2ccc(Cl)cc21 | Potency 26333 nM (inhibitor, single point)
- CCOC(=O)N1CCN(/[N+]([O-])=N/Oc2ccc([N+](=O)[O-])cc2[N+](=O)[O-])CC1 | Potency 3315 nM (inhibitor, full curve)
- Oc1ccc(Nc2nc(-c3ccc(Cl)cc3)cs2)cc1 | Potency 10483 nM (inhibitor, full curve)
- O=C(c1cc(Cc2n[nH]c(=O)c3ccccc23)ccc1F)N1CCN(C(=O)C2CC2)CC1 | Potency 4683 nM (inhibitor, full curve)
- C[C@@H]1C(=O)O[C@H]2CC34[C@H]5C[C@@H](C(C)(C)C)C36[C@H](OC(=O)[C@@H]6O)O[C@@]4(C(=O)O5)[C@]21O (stereo partly drawn) | Potency 1.5 nM (inhibitor, full curve, poor fit)

The last 3 entries again:

With Oc1ccc(Nc2nc(-c3ccc(Cl)cc3)cs2)cc1 the assay gave Potency 10483 nM (inhibitor, full curve).
With O=C(c1cc(Cc2n[nH]c(=O)c3ccccc23)ccc1F)N1CCN(C(=O)C2CC2)CC1 the assay gave Potency 4683 nM (inhibitor, full curve).
With C[C@@H]1C(=O)O[C@H]2CC34[C@H]5C[C@@H](C(C)(C)C)C36[C@H](OC(=O)[C@@H]6O)O[C@@]4(C(=O)O5)[C@]21O (stereo partly drawn) the assay gave Potency 1.5 nM (inhibitor, full curve, poor fit).

From PubChem BioAssay record AID2202234 (NCATS, 2025).